This series can be described thus: Fmoc solid-phase peptide synthesis; chlorotrityl resin; PyBOP and HOBt with DIPEA (cyclization). Particulars: whole synthesis.

Strings that start with PEPTIDE1 are HELM notation: dots part the residues, brackets hold end groups and non-standard residues.

For “PEPTIDE1{[bAla].R.Y.F.F.D.M.W.Y}$PEPTIDE1,PEPTIDE1,9:R2-1:R1$$$V2.0”, the isolated yield amounted to 20% yield.

The values are drawn from publication PMC10014601 (Frontiers in Molecular Biosciences, 2023).
